# Test results: the supplement of paper PMC8728848
# The other results are listed elsewhere or left out.
# Key:
# Assay in all cases: glycan array binding signal (z-score within array); higher = stronger binding
# Details in all cases: glycan notation: IUPAC condensed, linker removed
# [1] = target: GlcNAc(a1-4)Gal(b1-3)GlcNAc
# Method in brief: (§1)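 The binding signal is a Z-score computed within each array and averaged over linkers. Arrays of the same protein sequence at different concentrations or buffers were also averaged together. Data originate from 3228 arrays in the Consortium for Functional Glycomics database, kept only where the protein sequence was available.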
# [2] = target: GlcNAc(a1-4)Gal(b1-4)GalNAc
# Method in brief: as §1
# [3] = target: GlcNAc(a1-4)Gal(b1-4)GlcNAc
# Method in brief: as §1
# [4] = target: GlcNAc(a1-4)Gal(b1-4)GlcNAc(b1-3)Gal(b1-4)Glc
# Method in brief: as §1
# [5] = target: GlcNAc(a1-4)Gal(b1-4)GlcNAc(b1-3)Gal(b1-4)GlcNAc
# Method in brief: as §1
# [6] = target: GlcNAc(a1-4)Gal(b1-4)GlcNAc(b1-3)Gal(b1-4)GlcNAc(b1-3)Gal(b1-4)GlcNAc
# Method in brief: as §1
# [7] = target: GlcNAc(a1-4)Gal(b1-4)GlcNAc(b1-3)Gal(b1-4)[Fuc(a1-3)]GlcNAc(b1-3)Gal(b1-4)[Fuc(a1-3)]GlcNAc
# Method in brief: as §1
# [8] = target: GlcNAc(a1-6)Gal(b1-4)GlcNAc
# Method in brief: as §1
# [9] = target: GlcNAc(b1-2)Gal(b1-3)GalNAc
# Method in brief: as §1
# [10] = target: GlcNAc(b1-2)Man(a1-3)[GlcNAc(b1-2)Man(a1-6)]Man(b1-4)GlcNAc(b1-4)GlcNAc
# Method in brief: as §1
# [11] = target: GlcNAc(b1-2)Man(a1-3)[GlcNAc(b1-2)Man(a1-6)]Man(b1-4)GlcNAc(b1-4)[Fuc(a1-6)]GlcNAc
# Method in brief: as §1
# [12] = target: GlcNAc(b1-2)Man(a1-3)[GlcNAc(b1-4)][GlcNAc(b1-2)Man(a1-6)]Man(b1-4)GlcNAc(b1-4)GlcNAc
# Method in brief: as §1
# [13] = target: GlcNAc(b1-2)Man(a1-3)[GlcNAc(b1-4)][GlcNAc(b1-2)Man(a1-6)]Man(b1-4)GlcNAc(b1-4)[Fuc(a1-6)]GlcNAc
# Method in brief: as §1
# [14] = target: GlcNAc(b1-2)[GlcNAc(b1-4)]Man(a1-3)[GlcNAc(b1-2)Man(a1-6)]Man(b1-4)GlcNAc(b1-4)GlcNAc
# Method in brief: as §1
# [15] = target: GlcNAc(b1-2)[GlcNAc(b1-4)]Man(a1-3)[GlcNAc(b1-4)][GlcNAc(b1-2)Man(a1-6)]Man(b1-4)GlcNAc(b1-4)GlcNAc
# Method in brief: as §1
# [16] = target: GlcNAc(b1-2)[GlcNAc(b1-4)]Man(a1-3)[GlcNAc(b1-4)][GlcNAc(b1-2)[GlcNAc(b1-6)]Man(a1-6)]Man(b1-4)GlcNAc(b1-4)GlcNAc
# Method in brief: as §1
# [17] = target: GlcNAc(b1-2)[GlcNAc(b1-4)]Man(a1-3)[GlcNAc(b1-4)][GlcNAc(b1-2)[GlcNAc(b1-6)]Man(a1-6)]Man(b1-4)GlcNAc(b1-4)[Fuc(a1-6)]GlcNAc
# Method in brief: as §1
# [18] = target: GlcNAc(b1-2)[GlcNAc(b1-6)]Man(a1-6)[GlcNAc(b1-2)Man(a1-3)]Man(b1-4)GlcNAc(b1-4)GlcNAc
# Method in brief: as §1
# [19] = target: GlcNAc(b1-2)[GlcNAc(b1-6)]Man(a1-6)[GlcNAc(b1-2)Man(a1-3)]Man(b1-4)GlcNAc(b1-4)[Fuc(a1-6)]GlcNAc
# Method in brief: as §1
# [20] = target: GlcNAc(b1-2)[GlcNAc(b1-6)]Man(a1-6)[GlcNAc(b1-4)][GlcNAc(b1-2)Man(a1-3)]Man(b1-4)GlcNAc(b1-4)GlcNAc
# Method in brief: as §1
# GlcNAc(b1-3)Fuc = target: GlcNAc(b1-3)Fuc
# Method in brief: as §1
# GlcNAc(b1-3)Gal = target: GlcNAc(b1-3)Gal
# Method in brief: as §1
# [21] = target: GlcNAc(b1-3)Gal(b1-3)GalNAc
# Method in brief: as §1
# GlcNAc(b1-3)Gal(b1-4)Glc = target: GlcNAc(b1-3)Gal(b1-4)Glc
# Method in brief: as §1
# [22] = target: GlcNAc(b1-3)Gal(b1-4)GlcNAc
# Method in brief: as §1
# [23] = target: GlcNAc(b1-3)Gal(b1-4)GlcNAc(b1-2)Man(a1-3)[GlcNAc(b1-3)Gal(b1-4)GlcNAc(b1-2)Man(a1-6)]Man(b1-4)GlcNAc(b1-4)GlcNAc
# Method in brief: as §1
# [24] = target: GlcNAc(b1-3)Gal(b1-4)GlcNAc(b1-2)Man(a1-3)[GlcNAc(b1-3)Gal(b1-4)GlcNAc(b1-2)Man(a1-6)]Man(b1-4)GlcNAc(b1-4)[Fuc(a1-6)]GlcNAc
# Method in brief: as §1
# [25] = target: GlcNAc(b1-3)Gal(b1-4)GlcNAc(b1-2)[GlcNAc(b1-3)Gal(b1-4)GlcNAc(b1-6)]Man(a1-6)[GlcNAc(b1-3)Gal(b1-4)GlcNAc(b1-2)Man(a1-3)]Man(b1-4)GlcNAc(b1-4)GlcNAc
# Method in brief: as §1
# [26] = target: GlcNAc(b1-3)Gal(b1-4)GlcNAc(b1-3)Gal(b1-4)GlcNAc
# Method in brief: as §1
# [27] = target: GlcNAc(b1-3)Gal(b1-4)GlcNAc(b1-3)Gal(b1-4)GlcNAc(b1-2)Man(a1-3)[GlcNAc(b1-3)Gal(b1-4)GlcNAc(b1-3)Gal(b1-4)GlcNAc(b1-2)Man(a1-6)]Man(b1-4)GlcNAc(b1-4)GlcNAc
# Method in brief: as §1
# [28] = target: GlcNAc(b1-3)Gal(b1-4)GlcNAc(b1-3)Gal(b1-4)GlcNAc(b1-2)Man(a1-3)[GlcNAc(b1-3)Gal(b1-4)GlcNAc(b1-3)Gal(b1-4)GlcNAc(b1-2)Man(a1-6)]Man(b1-4)GlcNAc(b1-4)[Fuc(a1-6)]GlcNAc
# Method in brief: as §1
# [29] = target: GlcNAc(b1-3)Gal(b1-4)GlcNAc(b1-3)Gal(b1-4)GlcNAc(b1-2)[GlcNAc(b1-3)Gal(b1-4)GlcNAc(b1-3)Gal(b1-4)GlcNAc(b1-6)]Man(a1-6)[GlcNAc(b1-3)Gal(b1-4)GlcNAc(b1-3)Gal(b1-4)GlcNAc(b1-2)Man(a1-3)]Man(b1-4)GlcNAc(b1-4)[Fuc(a1-6)]GlcNAc
# Method in brief: as §1
# [30] = target: GlcNAc(b1-3)Gal(b1-4)GlcNAc(b1-3)Gal(b1-4)GlcNAc(b1-3)Gal(b1-4)GlcNAc(b1-2)Man(a1-3)[GlcNAc(b1-3)Gal(b1-4)GlcNAc(b1-3)Gal(b1-4)GlcNAc(b1-3)Gal(b1-4)GlcNAc(b1-2)Man(a1-6)]Man(b1-4)GlcNAc(b1-4)GlcNAc
# Method in brief: as §1
# [31] = target: GlcNAc(b1-3)Gal(b1-4)GlcNAc(b1-3)Gal(b1-4)GlcNAc(b1-3)Gal(b1-4)GlcNAc(b1-2)Man(a1-3)[GlcNAc(b1-3)Gal(b1-4)GlcNAc(b1-3)Gal(b1-4)GlcNAc(b1-3)Gal(b1-4)GlcNAc(b1-2)Man(a1-6)]Man(b1-4)GlcNAc(b1-4)[Fuc(a1-6)]GlcNAc
# Method in brief: as §1
# [32] = target: GlcNAc(b1-3)Gal(b1-4)GlcNAc(b1-3)Gal(b1-4)GlcNAc(b1-3)Gal(b1-4)GlcNAc(b1-2)[GlcNAc(b1-3)Gal(b1-4)GlcNAc(b1-3)Gal(b1-4)GlcNAc(b1-3)Gal(b1-4)GlcNAc(b1-6)]Man(a1-6)[GlcNAc(b1-3)Gal(b1-4)GlcNAc(b1-3)Gal(b1-4)GlcNAc(b1-3)Gal(b1-4)GlcNAc(b1-2)Man(a1-3)]Man(b1-4)GlcNAc(b1-4)[Fuc(a1-6)]GlcNAc
# Method in brief: as §1
# [33] = target: GlcNAc(b1-3)Gal(b1-4)GlcNAc(b1-3)Gal(b1-4)GlcNAc(b1-3)Gal(b1-4)GlcNAc(b1-3)Gal(b1-4)GlcNAc(b1-2)Man(a1-3)[GlcNAc(b1-3)Gal(b1-4)GlcNAc(b1-3)Gal(b1-4)GlcNAc(b1-3)Gal(b1-4)GlcNAc(b1-3)Gal(b1-4)GlcNAc(b1-2)Man(a1-6)]Man(b1-4)GlcNAc(b1-4)GlcNAc
# Method in brief: as §1
# [34] = target: GlcNAc(b1-3)Gal(b1-4)GlcNAc(b1-3)Gal(b1-4)GlcNAc(b1-3)Gal(b1-4)GlcNAc(b1-3)Gal(b1-4)GlcNAc(b1-2)Man(a1-3)[GlcNAc(b1-3)Gal(b1-4)GlcNAc(b1-3)Gal(b1-4)GlcNAc(b1-3)Gal(b1-4)GlcNAc(b1-3)Gal(b1-4)GlcNAc(b1-2)Man(a1-6)]Man(b1-4)GlcNAc(b1-4)[Fuc(a1-6)]GlcNAc
# Method in brief: as §1
# [35] = target: GlcNAc(b1-3)Gal(b1-4)GlcNAc(b1-3)Gal(b1-4)GlcNAc(b1-3)Gal(b1-4)GlcNAc(b1-3)Gal(b1-4)GlcNAc(b1-2)[GlcNAc(b1-3)Gal(b1-4)GlcNAc(b1-3)Gal(b1-4)GlcNAc(b1-3)Gal(b1-4)GlcNAc(b1-3)Gal(b1-4)GlcNAc(b1-6)]Man(a1-6)[GlcNAc(b1-3)Gal(b1-4)GlcNAc(b1-3)Gal(b1-4)GlcNAc(b1-3)Gal(b1-4)GlcNAc(b1-3)Gal(b1-4)GlcNAc(b1-2)Man(a1-3)]Man(b1-4)GlcNAc(b1-4)[Fuc(a1-6)]GlcNAc
# Method in brief: as §1
binder,measurement,setting,value
ArathEULS3 TAP (Arabidopsis thaliana) (protein) IDENLYFQGGSMDEKTTGWRGGHVVEGLAGELEQLRARLEHHPQGQREPGGGGSLEITSLYKKAGFMEHHHQHHRHHQRDDGEDDRQSFGVPPPHVDAPPQPHGLYQSQPHFDPYAPTPQAPAPYRSETQFEPHAPPPYRSEPYFETPAPPPSFGHVSHVGHQSPNESYPPEHHRYGGYQQPSNSLLESHGDHSGVTHVAHHSSNQPQSSSGVYHKPDENRLPDNLAGLAGRATVKVYSKAEPNYNLTIRDGKVILAPADPSDEAQHWYKDEKYSTKVKDADGHPCFALVNKATGEAMKHSVGATHPVHLIRYVPDKLDESVLWTESKDFGDGYRTIRMVNNTRLNVDAYHGDSKSGGVRDGTTIVLWDWNKGDNQLWKIFPF,glycan array binding signal (z-score),[1],0.727
same,glycan array binding signal (z-score),[2],-1.28
same,glycan array binding signal (z-score),[3],0.191
same,glycan array binding signal (z-score),[4],-1.18
same,glycan array binding signal (z-score),[5],1.79
same,glycan array binding signal (z-score),[6],0.236
same,glycan array binding signal (z-score),[7],0.794
same,glycan array binding signal (z-score),[8],-0.446
same,glycan array binding signal (z-score),[9],0.069
same,glycan array binding signal (z-score),[10],-0.769
same,glycan array binding signal (z-score),[11],-0.928
same,glycan array binding signal (z-score),[12],-2.43
same,glycan array binding signal (z-score),[13],0.473
same,glycan array binding signal (z-score),[14],1.43
same,glycan array binding signal (z-score),[15],-0.62
same,glycan array binding signal (z-score),[16],-0.38
same,glycan array binding signal (z-score),[17],-0.659
same,glycan array binding signal (z-score),[18],-1.47
same,glycan array binding signal (z-score),[19],0.323
same,glycan array binding signal (z-score),[20],-0.975
same,glycan array binding signal (z-score),GlcNAc(b1-3)Fuc,-0.796
same,glycan array binding signal (z-score),GlcNAc(b1-3)Gal,-1
same,glycan array binding signal (z-score),[21],1.14
same,glycan array binding signal (z-score),GlcNAc(b1-3)Gal(b1-4)Glc,-0.706
same,glycan array binding signal (z-score),[22],-0.59
same,glycan array binding signal (z-score),[23],-0.107
same,glycan array binding signal (z-score),[24],-0.354
same,glycan array binding signal (z-score),[25],1.41
same,glycan array binding signal (z-score),[26],0.442
same,glycan array binding signal (z-score),[27],2.26
same,glycan array binding signal (z-score),[28],-0.27
same,glycan array binding signal (z-score),[29],0.973
same,glycan array binding signal (z-score),[30],1.52
same,glycan array binding signal (z-score),[31],2.42
same,glycan array binding signal (z-score),[32],-0.128
same,glycan array binding signal (z-score),[33],0.229
same,glycan array binding signal (z-score),[34],0.348
same,glycan array binding signal (z-score),[35],3.16

# A second format for some results above:
binder | measurement | setting | value
ArathEULS3 TAP (Arabidopsis thaliana) (protein) IDENLYFQGGSMDEKTTGWRGGHVVEGLAGELEQLRARLEHHPQGQREPGGGGSLEITSLYKKAGFMEHHHQHHRHHQRDDGEDDRQSFGVPPPHVDAPPQPHGLYQSQPHFDPYAPTPQAPAPYRSETQFEPHAPPPYRSEPYFETPAPPPSFGHVSHVGHQSPNESYPPEHHRYGGYQQPSNSLLESHGDHSGVTHVAHHSSNQPQSSSGVYHKPDENRLPDNLAGLAGRATVKVYSKAEPNYNLTIRDGKVILAPADPSDEAQHWYKDEKYSTKVKDADGHPCFALVNKATGEAMKHSVGATHPVHLIRYVPDKLDESVLWTESKDFGDGYRTIRMVNNTRLNVDAYHGDSKSGGVRDGTTIVLWDWNKGDNQLWKIFPF | glycan array binding signal (z-score) | [3] | 0.191
same | glycan array binding signal (z-score) | [5] | 1.79
same | glycan array binding signal (z-score) | [9] | 0.069
same | glycan array binding signal (z-score) | [11] | -0.928
same | glycan array binding signal (z-score) | [17] | -0.659
same | glycan array binding signal (z-score) | [27] | 2.26
same | glycan array binding signal (z-score) | [32] | -0.128
